The values below come from the supplement of paper PMC12067093, “Discovery and optimisation of a covalent ligand for TRIM25 and its application to targeted protein ubiquitination” (Chemical Science, 2025).

This is one part of the list.
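Also: competitive chemoproteomic profiling in live THP-1 cells with an iodoacetamide desthiobiotin (IA-DTB) probe, comparing probe-labelled peptide intensities in compound-treated cells against DMSO-treated controls.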

Compound in one assay: CC1Cc2ccccc2N1C(=O)C1CCCN(C1)C(=O)CCl (mixture of isomers) [TRIM25 ligand 11 (diastereomer mixture)]
As to the kind of experiment: probe-labelled cysteine peptide fold change vs DMSO (competition) (log2 fold change); higher = less target engagement (more negative = stronger competition). The note with it: 10 µM; THP-1; incubation time: 4 h.
For “DHX38_Q92620_20_GDTSEDASIHRLEGTDLDCQVGGLICK (UniProt Q92620)”, the “probe-labelled cysteine peptide fold change” value worked out at 0.106.
As for “DHX33_Q9H6R0_518_FHCTEEILTIVSLLSVDSVLHNPPSR (UniProt Q9H6R0)”, the “probe-labelled cysteine peptide fold change” value was -0.0585.
With “DNM1L_O00429_470_LHDAIVEVVTCLLRK (UniProt O00429)”, the “probe-labelled cysteine peptide fold change” value was -0.359.
Regarding “DNAJC3_Q13217_184_ILEVCVWDAELR (UniProt Q13217)”, the “probe-labelled cysteine peptide fold change” value is 0.0448.
As to “DNAJC13_O75165_2181_SLQYGEQVNEILCR (UniProt O75165)”, the “probe-labelled cysteine peptide fold change” value is -0.000235.
As for “DHX36_Q9H2U1_284_AESCGSGNSTGYQIR (UniProt Q9H2U1)”, the “probe-labelled cysteine peptide fold change” value worked out at 0.03.
As to “DHX38_Q92620_865_TGPGQCFR (UniProt Q92620)”, the “probe-labelled cysteine peptide fold change” value is -0.0367.
For “DICER1_Q9UPY3_1641_DSEYGCLK (UniProt Q9UPY3)”, the “probe-labelled cysteine peptide fold change” value was -0.135.
For the target “DHX9_Q08211_242_KLAAQSCALSLVR (UniProt Q08211)”, the “probe-labelled cysteine peptide fold change” value is -0.115.
Regarding “DNM1L_O00429_361_YIETSELCGGAR (UniProt O00429)”, the “probe-labelled cysteine peptide fold change” value was determined as 0.21.
With “DNAJA3_Q96EY1_256_VQHCHYCGGSGMETINTGPFVMR (UniProt Q96EY1)”, the “probe-labelled cysteine peptide fold change” value was -0.0963.
Regarding DHX9_Q08211_940_FCEHKR (UniProt Q08211), the “probe-labelled cysteine peptide fold change” value is -0.0475.
“DMXL2_Q8TDJ6_2880_NVCLWDTLISPGNSLIHGFTCHDHGATVLQYAPK (UniProt Q8TDJ6)”: the “probe-labelled cysteine peptide fold change” value is 0.159.
For the target “DNMT1_P26358_1071_CTVEYGEDLPECVQVYSMGGPNR (UniProt P26358)”, the “probe-labelled cysteine peptide fold change” value was 0.0764.
On to “DNASE2_O00115_299_WCVSPK (UniProt O00115)”, for which the “probe-labelled cysteine peptide fold change” value is -0.0971.
Turning to “DNM2_P50570_607_QIELACDSQEDVDSWK (UniProt P50570)”, the “probe-labelled cysteine peptide fold change” value stood at 0.0299.
Turning to “DIS3L2_Q8IYB7_146_ETEAAYESDIPEELCGHHLPQQSLK (UniProt Q8IYB7)”, the “probe-labelled cysteine peptide fold change” value was 0.175.
Still for that read-out and setting: under “DNAJA1_P31689_302_CVLNEGMPIYR (UniProt P31689)” stands -0.0264.
For “DIEXF_Q68CQ4_717_ATNRGEEATWTCTVLYSK (UniProt Q68CQ4)”, the “probe-labelled cysteine peptide fold change” value was -0.0216.
As to “DNAJA1_P31689_153_KGAVECCPNCR (UniProt P31689)”, the “probe-labelled cysteine peptide fold change” value is -0.0751.
As to “DIS3L_Q8TF46_88_GIIFMQTACQAVQHQR (UniProt Q8TF46)”, the “probe-labelled cysteine peptide fold change” value was determined as 0.0869.
For “DNM1L_O00429_644_DCEVIER (UniProt O00429)”, the “probe-labelled cysteine peptide fold change” value stood at 0.0323.
The same measure, in the same setting: the result for “DHX33_Q9H6R0_518_FHCTEEILTIVSLLSVDSVLHNPPSRR (UniProt Q9H6R0)” reads 0.0209; that for “DMAP1_Q9NPF5_199_YYHICAK (UniProt Q9NPF5)”, -0.00316.
With “DNAJC2_Q99543_276_TLVDNAYSCDPR (UniProt Q99543)”, the “probe-labelled cysteine peptide fold change” value is -0.0127.
Still for that read-out and setting: the result for “DHX9_Q08211_438_AAECNIVVTQPR (UniProt Q08211)” reads -0.00921; that for “DMXL1_Q9Y485_2781_MFEWGHSQQITCFR (UniProt Q9Y485)”, -0.132; that for “DHX38_Q92620_618_FEDCTSENTLIK (UniProt Q92620)”, 0.0471.
“DNAJB14_Q8TBM8_178_QYDLTGNEEQACNHQNNGR (UniProt Q8TBM8)”: the “probe-labelled cysteine peptide fold change” value was -0.286.
For the target “DHX35_Q9H5Z1_609_CIVSGFFANAAR (UniProt Q9H5Z1)”, the “probe-labelled cysteine peptide fold change” value came out at 0.0248.
Regarding “DHX36_Q9H2U1_836_AVICAGLYPK (UniProt Q9H2U1)”, the “probe-labelled cysteine peptide fold change” value came to 0.0714.
With “DMAC2_Q9NW81_194_GLACLHHLQNLR (UniProt Q9NW81)”, the “probe-labelled cysteine peptide fold change” value was -0.157.
The same measure, in the same setting: under “DNAJC7_Q99615_58_AIDMCPK (UniProt Q99615)” stands -0.0221; under “DMXL2_Q8TDJ6_62_HGNIQVSCVECSNQQGR (UniProt Q8TDJ6)”, -0.159.
As for “DIS3L2_Q8IYB7_196_LSVCVSEK (UniProt Q8IYB7)”, the “probe-labelled cysteine peptide fold change” value was 0.096.
Take “DNAJA1_P31689_149+150+153_GAVECCPNCR (UniProt P31689)”: the “probe-labelled cysteine peptide fold change” value amounted to 0.0602.
As to “DNAJA4_Q8WW22_138_CEGVGGK (UniProt Q8WW22)”, the “probe-labelled cysteine peptide fold change” value stood at 0.0667.

Staying with this assay, now noted: 50 µM; THP-1; incubation time: 4 h.
For the target “DHX38_Q92620_20_GDTSEDASIHRLEGTDLDCQVGGLICK (UniProt Q92620)”, the “probe-labelled cysteine peptide fold change” value was -0.445.
Turning to “DHX33_Q9H6R0_518_FHCTEEILTIVSLLSVDSVLHNPPSR (UniProt Q9H6R0)”, the “probe-labelled cysteine peptide fold change” value was 0.00714.
Consider “DNM1L_O00429_470_LHDAIVEVVTCLLRK (UniProt O00429)”, for which the “probe-labelled cysteine peptide fold change” value was -0.0808.
As to “DNAJC3_Q13217_184_ILEVCVWDAELR (UniProt Q13217)”, the “probe-labelled cysteine peptide fold change” value worked out at 0.235.
As to “DNAJC13_O75165_2181_SLQYGEQVNEILCR (UniProt O75165)”, the “probe-labelled cysteine peptide fold change” value is 0.0482.
As for “DHX36_Q9H2U1_284_AESCGSGNSTGYQIR (UniProt Q9H2U1)”, the “probe-labelled cysteine peptide fold change” value was -0.0409.
As for “DHX38_Q92620_865_TGPGQCFR (UniProt Q92620)”, the “probe-labelled cysteine peptide fold change” value is 0.0212.
For the target “DICER1_Q9UPY3_1641_DSEYGCLK (UniProt Q9UPY3)”, the “probe-labelled cysteine peptide fold change” value is -0.0335.
As to “DHX9_Q08211_242_KLAAQSCALSLVR (UniProt Q08211)”, the “probe-labelled cysteine peptide fold change” value is -0.0446.
As to “DNM1L_O00429_361_YIETSELCGGAR (UniProt O00429)”, the “probe-labelled cysteine peptide fold change” value was -0.152.
Consider “DNAJA3_Q96EY1_256_VQHCHYCGGSGMETINTGPFVMR (UniProt Q96EY1)”, for which the “probe-labelled cysteine peptide fold change” value was 0.0469.
In the case of DHX9_Q08211_940_FCEHKR (UniProt Q08211), the “probe-labelled cysteine peptide fold change” value came to 0.0337.
As for “DMXL2_Q8TDJ6_2880_NVCLWDTLISPGNSLIHGFTCHDHGATVLQYAPK (UniProt Q8TDJ6)”, the “probe-labelled cysteine peptide fold change” value is -0.375.
For the target “DNMT1_P26358_1071_CTVEYGEDLPECVQVYSMGGPNR (UniProt P26358)”, the “probe-labelled cysteine peptide fold change” value was -0.0599.
Still for that read-out and setting: under “DNASE2_O00115_299_WCVSPK (UniProt O00115)” stands 0.0817.
For the target “DNM2_P50570_607_QIELACDSQEDVDSWK (UniProt P50570)”, the “probe-labelled cysteine peptide fold change” value was -0.132.
Consider “DIS3L2_Q8IYB7_146_ETEAAYESDIPEELCGHHLPQQSLK (UniProt Q8IYB7)”, for which the “probe-labelled cysteine peptide fold change” value was -0.159.
Still for that read-out and setting: under “DNAJA1_P31689_302_CVLNEGMPIYR (UniProt P31689)” stands -0.211; under “DIEXF_Q68CQ4_717_ATNRGEEATWTCTVLYSK (UniProt Q68CQ4)”, 0.0467.
As for “DNAJA1_P31689_153_KGAVECCPNCR (UniProt P31689)”, the “probe-labelled cysteine peptide fold change” value turned out to be 0.023.
As for “DIS3L_Q8TF46_88_GIIFMQTACQAVQHQR (UniProt Q8TF46)”, the “probe-labelled cysteine peptide fold change” value amounted to 0.0605.
Same read-out and setting: the result for “DNM1L_O00429_644_DCEVIER (UniProt O00429)” reads 0.111.
On to “DHX33_Q9H6R0_518_FHCTEEILTIVSLLSVDSVLHNPPSRR (UniProt Q9H6R0)”, for which the “probe-labelled cysteine peptide fold change” value was -0.279.
For the target “DMAP1_Q9NPF5_199_YYHICAK (UniProt Q9NPF5)”, the “probe-labelled cysteine peptide fold change” value stood at 0.107.
On to “DNAJC2_Q99543_276_TLVDNAYSCDPR (UniProt Q99543)”, for which the “probe-labelled cysteine peptide fold change” value was -0.0992.
For the target “DHX9_Q08211_438_AAECNIVVTQPR (UniProt Q08211)”, the “probe-labelled cysteine peptide fold change” value was found to be 0.0105.
For the target “DMXL1_Q9Y485_2781_MFEWGHSQQITCFR (UniProt Q9Y485)”, the “probe-labelled cysteine peptide fold change” value was 0.0733.
On to “DHX38_Q92620_618_FEDCTSENTLIK (UniProt Q92620)”, for which the “probe-labelled cysteine peptide fold change” value was found to be 0.0176.
For “DNAJB14_Q8TBM8_178_QYDLTGNEEQACNHQNNGR (UniProt Q8TBM8)”, the “probe-labelled cysteine peptide fold change” value was -0.352.
In the case of “DHX35_Q9H5Z1_609_CIVSGFFANAAR (UniProt Q9H5Z1)”, the “probe-labelled cysteine peptide fold change” value came to 0.134.
Turning to “DHX36_Q9H2U1_836_AVICAGLYPK (UniProt Q9H2U1)”, the “probe-labelled cysteine peptide fold change” value is -0.0504.
With “DMAC2_Q9NW81_194_GLACLHHLQNLR (UniProt Q9NW81)”, the “probe-labelled cysteine peptide fold change” value was -0.162.
Turning to “DNAJC7_Q99615_58_AIDMCPK (UniProt Q99615)”, the “probe-labelled cysteine peptide fold change” value was 0.137.
On the same count and under the same terms, the result for “DMXL2_Q8TDJ6_62_HGNIQVSCVECSNQQGR (UniProt Q8TDJ6)” reads -0.593; that for “DIS3L2_Q8IYB7_196_LSVCVSEK (UniProt Q8IYB7)”, -0.0214; that for “DNAJA1_P31689_149+150+153_GAVECCPNCR (UniProt P31689)”, 0.0884.
Take “DNAJA4_Q8WW22_138_CEGVGGK (UniProt Q8WW22)”: the “probe-labelled cysteine peptide fold change” value came out at 0.0587.
